The campaign covered roughly 410,000 compounds. About 18,000 (4.4%) were called active. The inconclusive results got no clear call from the source; some entries with a clear call stand among them for comparison. Cut-off read from the data, not from the text of the source: active = activity change below about -60%; inconclusive = no clear call, values can overlap the other calls; inactive = above about -39%.
assay: qHTS Assay for inhibitors of the human cytomegalovirus (HCMV); conditions: HFF cells, HCMV-luciferase reporter, 72 h; at 57.5 µM; hits give low values
In short: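 Steps: HFFs plated, 16 h 37C; compounds added; HCMV-luciferase added to MOI 1 PFU/cell; 72 h 37C; OneGlo reagent, 5 min room temperature; luminescence read, normalized to controls.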
% is set by controls: 0 for no effect and ±100 for the full control effect.

SMILES | activity change, negative = inhibition
Cn1c(=O)c2c(nc(CN3CCN(C(=O)c4ccco4)CC3)n2Cc2cccc(Cl)c2)n(C)c1=O | inactive: 26.5%
CCCc1ccc(OCc2nc(-c3ccc(NC(=O)c4cccs4)cc3)no2)cc1 | inconclusive: -54.7%
O=C(NCc1ccc2c(c1)OCO2)c1ccccc1 | inactive: 11.4%
COc1ccc(C2C3=C(CC(C)(C)CC3=O)Oc3ncn(Cc4ccccc4)c(=N)c32)cc1 (centres undefined) | inconclusive: -49.6%
O=C1CCS/C(=N\N=C\c2ccc(Cl)cc2Cl)N1 | inconclusive: -57.3%
CC(=O)c1ccc(OCc2cc(C(=O)N3CCC(c4ccncc4)CC3)no2)cc1 | active: -81%
COc1ccc(S(=O)(=O)Nc2cc(SCC(=O)O)c(O)c3ccccc23)cc1 | inconclusive: -49.9%
Cc1ccc(-c2onc(C)c2C)cc1S(=O)(=O)NC1CCC(C)CC1 (centres undefined) | active: -67.3%
O=C1C2C3CCC(C3NCc3ccccc3)C2C(=O)N1Cc1ccccc1 (centres undefined) | inconclusive: -52.6%
O=C(NC1CCCCC1)C(c1cccnc1)N(CCc1ccccc1)C(=O)Cc1cccs1 (centres undefined) | inconclusive: -54.6%
CC1(C)CC(=O)C(N=Nc2cc(C(F)(F)F)ccc2Cl)=C(O)C1 | active: -62.5%
CCN(C(=O)COC(=O)c1nccnc1N)c1cccc2ccccc12 | inactive: 16.4%
Cc1ccc(C(=O)CC(=O)c2ccccc2C)c(O)c1 | inconclusive: -52%
O=C(N/N=C/c1ccc(Cl)s1)C(O)c1ccccc1 (centres undefined) | inactive: -12.9%
COc1ccccc1CNC(=O)c1cnn(-c2ccc(F)cc2F)c1C1CCN(C(=O)OC(C)(C)C)CC1 | inconclusive: 0%
COc1ccc(-c2noc(CCC(=O)Nc3ccccc3Cl)n2)cc1OC | inactive: -16.6%
Fc1ccc(-c2noc3ncnc(NCc4cccc(Cl)c4)c23)cc1 | inactive: -29.6%
Cc1cc(NC(=O)c2ccc([N+](=O)[O-])o2)ccc1NC(=O)c1ccco1 | active: -84.8%
Cn1c(-c2ccccc2)c(C(=O)CCl)c2ccccc21 | active: -101%
COc1ccc(/C=C\c2onc(C)c2S(=O)(=O)N2CCC(C(=O)Nc3ccc(C)c(F)c3)CC2)cc1 | inconclusive: -55.3%
COC(=O)CNC(=O)c1ccc(OC2CCN(C(=O)C3CC3)CC2)cc1 | inconclusive: -50.9%
CCOC(=O)c1c(NC(=O)CN2CCN(c3ccc(Cl)cc3)CC2)sc(C)c1C | inactive: 34.9%
CCOC(=O)N1CCN(c2nc(C(F)(F)F)nc3c(C)cc(C)cc23)CC1 | inconclusive: -43.2%
CC(C)(C)NC(=O)CCN(/N=C/c1ccncc1)C1=NS(=O)(=O)c2ccccc21 | inconclusive: -42.9%

Some of these compounds in order of SMILES length, high to low:
SMILES | activity change, negative = inhibition
COc1ccc(/C=C\c2onc(C)c2S(=O)(=O)N2CCC(C(=O)Nc3ccc(C)c(F)c3)CC2)cc1 | inconclusive: -55.3%
CC(C)(C)NC(=O)CCN(/N=C/c1ccncc1)C1=NS(=O)(=O)c2ccccc21 | inconclusive: -42.9%
O=C(NC1CCCCC1)C(c1cccnc1)N(CCc1ccccc1)C(=O)Cc1cccs1 (centres undefined) | inconclusive: -54.6%
CC(=O)c1ccc(OCc2cc(C(=O)N3CCC(c4ccncc4)CC3)no2)cc1 | active: -81%
COc1ccc(S(=O)(=O)Nc2cc(SCC(=O)O)c(O)c3ccccc23)cc1 | inconclusive: -49.9%
CC1(C)CC(=O)C(N=Nc2cc(C(F)(F)F)ccc2Cl)=C(O)C1 | active: -62.5%

From PubChem BioAssay AID1259415 (National Center for Advancing Translational Sciences (NCATS), 2018)
